Laboratory results: PubChem BioAssay AID686938 (Drosophila RNAi Screening Center, 2013)

- Aim: 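Fly genes required for calcium entry once internal stores are emptied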 (primary screen)
- Cell system: Drosophila S2R+ cells
- Knock-down reagent: long dsRNA against Drosophila genes, about 0.25 µg dsRNA per well, roughly 10,000 cells
- Timing: 5 days of knock-down before the calcium assay
- Challenge: thapsigargin (SERCA pump blocker) to empty calcium stores; entry signal taken 4 min after adding it
- Measurement: 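Duplicate raw fluo-4 intensities per well from a plate reader, at rest and four minutes after thapsigargin emptied calcium stores; entry-to-rest ratio filled for only some wells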
- Scale: calcium entry signal: higher = stronger calcium signal after store depletion; entry to resting ratio: higher = more calcium entry relative to resting level; resting calcium signal: higher = higher resting calcium signal
- Active means: 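Hit if the duplicate-averaged plate z-score for entry over resting signal is under −3; wells with weak total dye signal (Fmax z < −2) or more than 5 off-targets removed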
- Meaning of the calls: active = strongly reduced calcium entry; inactive = no strong reduction
The screen tested about 23,000 reagents; below is an unselected part of those with a known target gene and a result. In the full data, 75 (0.33%) are marked active. 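Raw plate signals without normalisation; calls rest on plate z-scores that were not deposited; ratio present for only 364 wells.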 Entries without a mark were called inactive. Names joined by + are all predicted targets of the reagent. The record does not give: the dose of the treatment.

| target | dsRNA | calcium entry signal, replicate 1 (fluorescence units) | calcium entry signal, replicate 2 (fluorescence units) | entry to resting ratio | resting calcium signal, replicate 1 (fluorescence units) | resting calcium signal, replicate 2 (fluorescence units) |
| --- | --- | --- | --- | --- | --- | --- |
| PH4alphaMP (prolyl-4-hydroxylase-alpha MP) | DRSC17031 | 3.52e7 | 4.78e7 | – | 1.80e7 | 1.76e7 |
| CG9782 | DRSC19145 | 3.25e7 | 4.59e7 | – | 1.72e7 | 2.25e7 |
| CG9782 | DRSC20209 | 2.99e7 | 2.71e7 | – | 1.56e7 | 1.21e7 |
| Or45a (Odorant receptor 45a) | DRSC07487 | 4.10e7 | 4.15e7 | – | 1.97e7 | 1.70e7 |
| CG30151 | DRSC05888 | 2.11e7 | 3.93e7 | – | 1.03e7 | 1.92e7 |
| cni (cornichon) | DRSC03512 | 5.39e7 | 3.81e7 | – | 2.45e7 | 1.61e7 |
| Gr22c (Gustatory receptor 22c) | DRSC22081 | 4.29e7 | 5.01e7 | – | 2.16e7 | 2.94e7 |
| mip130 (Myb-interacting protein 130) | DRSC18575 | 3.88e7 | 5.14e7 | 1.9 | 2.06e7 | 2.22e7 |
| CG31546 | DRSC12317 | 3.40e7 | 3.69e7 | – | 1.48e7 | 1.63e7 |
| Cpr65Ec (Cuticular protein 65Ec) | DRSC11025 | 3.37e7 | 3.89e7 | – | 1.61e7 | 1.63e7 |
| opa (odd paired) | DRSC12384 | 2.47e7 | 4.94e7 | – | 1.33e7 | 2.18e7 |
| opa (odd paired) | DRSC22563 | 4.35e7 | 3.54e7 | – | 2.53e7 | 1.60e7 |
| opa (odd paired) | DRSC23152 | 3.11e7 | 3.55e7 | – | 1.79e7 | 1.80e7 |
| CG10344 | DRSC04066 | 2.03e7 | 2.99e7 | – | 1.07e7 | 1.27e7 |
| CG43071 | DRSC05753 | 3.45e7 | 3.85e7 | – | 1.58e7 | 1.97e7 |
| CG31862 | DRSC01245 | 4.68e7 | 4.14e7 | – | 2.52e7 | 1.90e7 |
| CG4607 | DRSC18375 | 3.59e7 | 4.91e7 | – | 1.84e7 | 2.18e7 |
| CG32054 | DRSC10684 | 2.63e7 | 4.26e7 | – | 1.43e7 | 1.81e7 |
| Vha16-1 (Vacuolar H[+] ATPase 16kD subunit 1) | DRSC05020 | 5.28e7 | 4.47e7 | – | 3.27e7 | 2.81e7 |
| CG32379 | DRSC10318 | 2.72e7 | 4.19e7 | – | 1.36e7 | 1.77e7 |
| Nsun5 (Nop2/Sun-like domain containing protein 5) | DRSC15835 | 2.98e7 | 2.51e7 | – | 1.32e7 | 1.11e7 |
| Glyp (Glycogen phosphorylase) | DRSC00752 | 4.02e7 | 2.18e7 | – | 1.83e7 | 1.20e7 |
| ppk22 (pickpocket 22) | DRSC22093 | 3.71e7 | 9.88e7 | – | 1.76e7 | 3.77e7 |
| vilya | DRSC18588 | 3.39e7 | 5.34e7 | 1.9 | 1.80e7 | 2.09e7 |
| CG15715 | DRSC10216 | 4.29e7 | 6.54e7 | – | 1.95e7 | 2.60e7 |
| CG17325 + CG42305 | DRSC02602 | 3.72e7 | 3.83e7 | – | 1.83e7 | 1.80e7 |
| CheA84a (Chemosensory protein A 84a) | DRSC12669 | 3.22e7 | 6.42e7 | – | 1.60e7 | 2.87e7 |
| Hsp83 (Heat shock protein 83) | DRSC08664 | 3.06e7 | 2.48e7 | – | 1.98e7 | 1.52e7 |
| CG4949 | DRSC19926 | 5.23e7 | 5.38e7 | – | 2.13e7 | 2.02e7 |
| CG15452 | DRSC20523 | 5.05e7 | 5.25e7 | – | 2.55e7 | 2.28e7 |
| CG1607 | DRSC15130 | 1.95e7 | 2.31e7 | – | 1.02e7 | 1.21e7 |
| CG12025 | DRSC08230 | 3.69e7 | 3.50e7 | – | 1.86e7 | 1.81e7 |
| wek (weckle) | DRSC03561 | 4.22e7 | – | – | 2.21e7 | – |
| CG14434 | DRSC17927 | 2.85e7 | 3.69e7 | – | 1.54e7 | 1.74e7 |
| Tmem214 (Transmembrane protein 214) | DRSC02924 | 2.89e7 | 3.03e7 | – | 1.26e7 | 1.32e7 |
| Tmem214 (Transmembrane protein 214) | DRSC02925 | 3.09e7 | 3.26e7 | – | 1.39e7 | 1.42e7 |
| CG33998 | DRSC05747 | 2.91e7 | 3.88e7 | – | 1.34e7 | 2.10e7 |
| CG5139 | DRSC00681 | 4.29e7 | 4.78e7 | – | 1.97e7 | 2.12e7 |
| Lmx1a (LIM homeobox transcription factor 1 alpha) | DRSC09726 | 3.45e7 | 5.08e7 | – | 1.88e7 | 2.42e7 |
| Lmx1a (LIM homeobox transcription factor 1 alpha) | DRSC10275 | 2.58e7 | 4.41e7 | – | 1.51e7 | 2.22e7 |
| CG6293 | DRSC16011 | 3.49e7 | 4.45e7 | – | 1.51e7 | 1.85e7 |
| CG14286 | DRSC14767 | 3.54e7 | 3.19e7 | – | 3.81e7 | 1.32e7 |
| CG34106 | DRSC01578 | 3.15e7 | 4.32e7 | – | 1.79e7 | 1.94e7 |
| Spps (Sp1-like factor for pairing sensitive-silencing) | DRSC15856 | 4.44e7 | 3.93e7 | – | 2.23e7 | 2.15e7 |
| Spps (Sp1-like factor for pairing sensitive-silencing) | DRSC23206 | 3.67e7 | 4.96e7 | – | 1.64e7 | 2.02e7 |
| Hyccin | DRSC06983 | 3.16e7 | 2.58e7 | – | 1.50e7 | 1.30e7 |
| CG42490 (retired record) | DRSC01649 | 1.52e7 | 3.49e7 | – | 1.26e7 | 1.53e7 |
| mthl2 (methuselah-like 2) | DRSC10287 | 3.42e7 | 4.67e7 | – | 1.64e7 | 2.13e7 |
| MED6 (Mediator complex subunit 6) | DRSC16500 | 2.64e7 | 3.41e7 | – | 1.31e7 | 1.59e7 |
| CG42699 | DRSC18076 | 3.03e7 | 3.13e7 | – | 1.39e7 | 1.50e7 |
| CG42699 | DRSC18341 | 4.02e7 | 4.30e7 | – | 2.06e7 | 2.00e7 |
| Obp99b (Odorant-binding protein 99b) | DRSC16264 | 4.25e7 | 4.56e7 | – | 2.18e7 | 2.13e7 |
| CG7246 | DRSC18422 | 3.76e7 | 1.81e7 | – | 1.90e7 | 1.17e7 |
| CG13436 | DRSC06396 | 1.99e7 | 2.72e7 | – | 1.03e7 | 1.21e7 |
| ca (claret) | DRSC15305 | 3.02e7 | 4.06e7 | – | 1.36e7 | 1.76e7 |
| ca (claret) | DRSC15306 | 4.36e7 | 6.49e7 | – | 2.19e7 | 2.50e7 |
| ca (claret) | DRSC16314 | 4.33e7 | 5.97e7 | – | 2.16e7 | 2.56e7 |
| CG7631 | DRSC01873 | 5.13e7 | 3.43e7 | – | 2.16e7 | 1.61e7 |

2 entries from above in another layout:
Glyp (Glycogen phosphorylase) [DRSC00752]
- calcium entry signal, replicate 1 (fluorescence units): 4.02e7
- calcium entry signal, replicate 2 (fluorescence units): 2.18e7
- resting calcium signal, replicate 1 (fluorescence units): 1.83e7
- resting calcium signal, replicate 2 (fluorescence units): 1.20e7

ppk22 (pickpocket 22) [DRSC22093]
- calcium entry signal, replicate 1 (fluorescence units): 3.71e7
- calcium entry signal, replicate 2 (fluorescence units): 9.88e7
- resting calcium signal, replicate 1 (fluorescence units): 1.76e7
- resting calcium signal, replicate 2 (fluorescence units): 3.77e7
